This note sets out measurements from PMC9502102.

Sequences of proteins named here, by UniProt entry; tags and fusion partners are left off. Residues count along the entry.
UniProt P02769, 25-607: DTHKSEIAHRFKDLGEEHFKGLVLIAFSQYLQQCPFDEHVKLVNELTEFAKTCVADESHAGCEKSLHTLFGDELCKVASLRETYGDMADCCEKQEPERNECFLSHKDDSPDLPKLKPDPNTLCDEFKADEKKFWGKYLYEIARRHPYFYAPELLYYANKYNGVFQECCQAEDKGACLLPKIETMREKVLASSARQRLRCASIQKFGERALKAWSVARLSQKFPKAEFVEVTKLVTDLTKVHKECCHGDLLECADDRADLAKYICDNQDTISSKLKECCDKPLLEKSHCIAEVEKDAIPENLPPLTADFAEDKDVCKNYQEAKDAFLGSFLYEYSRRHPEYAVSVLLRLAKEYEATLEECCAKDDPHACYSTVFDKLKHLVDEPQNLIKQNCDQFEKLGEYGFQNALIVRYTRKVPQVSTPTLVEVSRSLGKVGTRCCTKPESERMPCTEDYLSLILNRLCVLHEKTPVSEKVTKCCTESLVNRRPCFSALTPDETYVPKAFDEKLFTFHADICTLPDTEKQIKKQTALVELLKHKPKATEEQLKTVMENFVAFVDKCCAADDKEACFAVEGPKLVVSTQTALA

A negative result means that nothing was seen under these conditions. For some assays here: Construct, isoform or probe ends are uncertain for at least one entry.

For one series, the target named is BSA (UniProt P02769). The series can be described thus: fluorescence recovery (GO sensor). Conditions: 0.001 nM protein; commercial protein; label: 3'-FAM; single-stranded DNA.
For a further series, the system named is lysozyme. Description: fluorescence recovery (GO sensor). The settings on record: 0.001 nM protein; commercial protein; label: 3'-FAM; single-stranded DNA.

On to “AAAAGTCCGTGGTAGGGCAGGTTGGGGTGACT [Thrombin binding aptamer (TBA)]”, for which the binding result with BSA and in the series with lysozyme was “no binding” throughout.
